Consider 25 compounds from the supplement of paper PMC9135407.

Structures are written as SMILES. “And” between values parts separate entries of the source, which are not always exact repeats. Equal entries are not always repeated. Structures can show the parent of a compound that is named as a salt. ± gives the standard deviation of the averaged measurements. This is one part of the list. Part of the spread comes from offsets between plates or batches.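 Culture-activated primary human stellate myofibroblasts, where regained lipid droplets signal inactivation. Value: share of Hoechst-counted cells above a per-plate Bodipy cutoff, in duplicate wells, with DMSO negative and nortriptyline positive controls on each plate. Hits: a control-normalized score above the plate's top-tenth-percentile nortriptyline wells, or one of a plate's three best wells. Final well concentrations are not given.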

This experiment deals with primary human hepatic stellate cells (donor 1). Briefly: percent Bodipy-positive cells; higher = more lipid droplet accumulation. As to conditions: 48 h.
The mark [1] stands for this setting: library stock concentration: 3.33 mM.
Setting [2] is: library stock concentration: 10 mM.
Where [3] appears, read: library stock concentration: 1 mM.

In the case of `CCOc1cc([C@@H](CS(C)(=O)=O)N2C(=O)c3cccc(NC(C)=O)c3C2=O)ccc1OC`, the “percent Bodipy-positive cells” value reads like this: under setting [1], 38.1 ± 3.7%; under setting [2], 36.2 ± 2.2%.
`CCCCCCCCCCCCC/C=C/[C@@H](O)[C@H](CO)NC(C)=O` [C-2 Ceramide]: under setting [3], the “percent Bodipy-positive cells” value is 12.1 ± 5%.
Turning to `CCCCCCCCCCCCC/C=C/[C@@H](O)[C@H](CO)NC(C)=O` [C2 Ceramide], the “percent Bodipy-positive cells” value under setting [3] was 27.8 ± 30%.
As for `O=C(O)c1cc(=O)c2ccccc2o1` [Chromocarb], the “percent Bodipy-positive cells” value runs as follows: under setting [1], 9.91 ± 3%; under setting [2], 32.1% and 26.9%.
For `c1ccc(-c2cnc(Nc3ccc(OCCN4CCCC4)cc3)s2)cc1` [Flt-3 Inhibitor III], the “percent Bodipy-positive cells” value under setting [1] was found to be 85.8 ± 0.47%.
For the compound `CCCCC[C@H](O)/C=C/C1=C(C/C=C\CCCC(=O)O)C(=O)CC1` [Prostaglandin B2], under setting [3], the “percent Bodipy-positive cells” value is 15.1% and 15.3%.
With `NC(=S)c1ccc[n+]([C@@H]2O[C@@H](COP(=O)([O-])OP(=O)(O)OC[C@H]3O[C@@H](n4cnc5c(N)ncnc54)C(OP(=O)(O)O)[C@H]3O)C(O)C2O)c1` (some centres undefined) [Thio-NADP sodium], the “percent Bodipy-positive cells” value under setting [2] is 21.7 ± 4.3%.
Regarding `NC(N)=NCCNS(=O)(=O)c1cccc2cnccc12`, under “library stock concentration: 17 mM”, the “percent Bodipy-positive cells” value was 8.04 ± 2.6%.
`NC(N)=NCCNS(=O)(=O)c1cccc2cnccc12` [HA 1004, Dihydrochloride]: the “percent Bodipy-positive cells” value under setting [1] stood at 8.43 ± 2.4%.
In the case of `Cc1c(C(N)=O)cc([N+](=O)[O-])cc1[N+](=O)[O-]` [Dinitolmide], the “percent Bodipy-positive cells” value by setting is: under setting [1], 10.5 ± 1.6%; under setting [2], 23.9% and 27.7%.
Consider `CCCCC[C@H](O)/C=C/[C@@H]1[C@H]2C[C@@H](CCCCC(=O)O)O[C@H]2C[C@H]1O` [6.alpha.-Prostaglandin I1], for which the “percent Bodipy-positive cells” value under setting [3] stood at 16.3 ± 0.47%.
Take `CNC(=O)[C@H]1O[C@@H](n2cnc3c(NCc4cccc(I)c4)ncnc32)[C@H](O)[C@@H]1O`: the “percent Bodipy-positive cells” value under setting [2] was 20.6% and 5.62%.
For `C=C[C@H]1CN2CC[C@H]1C[C@@H]2[C@@H](O)c1ccnc2ccc(OC)cc12` [Quinidine sulfate], the “percent Bodipy-positive cells” value under setting [2] was 58.7 ± 6.2%.
Consider `C=C[C@H]1CN2CC[C@H]1C[C@@H]2[C@@H](O)c1ccnc2ccc(OC)cc12` [Quinidine hydrochloride monohydrate], for which the “percent Bodipy-positive cells” value came out at 51.9 ± 14%. The “percent Bodipy-positive cells” value under setting [2] was 68.1 ± 2.2%.
Turning to `C=C[C@H]1CN2CC[C@H]1C[C@@H]2[C@@H](O)c1ccnc2ccc(OC)cc12` [Quinidine gluconate], under setting [2], the “percent Bodipy-positive cells” value worked out at 38.4 ± 7.6%.
For the compound `C[C@]12CC[C@H]3C(=CCc4cc(O)ccc43)[C@@H]1CCC2=O` [Equilin], the “percent Bodipy-positive cells” value was 15.9 ± 1.1%. For the same compound, the “percent Bodipy-positive cells” value (library stock concentration: 7.5 mM) was 4.87 ± 4.3%. Moreover, under setting [2], the “percent Bodipy-positive cells” value is 18.4 ± 3.4%.
On to `C[C@]12C=CC(=O)C=C1CC[C@@H]1[C@@H]2[C@@H](O)C[C@@]2(C)[C@H]1CC[C@]2(O)C(=O)COP(=O)(O)O`, for which, under setting [2], the “percent Bodipy-positive cells” value stood at 32.4 ± 4%.
As to `N=C(N)N`, the “percent Bodipy-positive cells” value under setting [2] is 29.81 ± 0.082%.
`N=C(N)N` [Guanidine HCl]: the “percent Bodipy-positive cells” value by setting is: under setting [1], 12.4 ± 0.069%; under setting [2], 25.2 ± 6.8%.
For `CC(C)OC(=O)CCC/C=C\C[C@@H]1[C@@H](/C=C/[C@@H](O)CCc2ccccc2)[C@H](O)C[C@@H]1O` [17-phenyl trinor Prostaglandin F2.alpha. isopropyl ester], the “percent Bodipy-positive cells” value under setting [3] is 20.6 ± 3.3%.
For `N#Cc1ccc2[nH]cc(CCCCN3CCN(c4ccc5oc(C(N)=O)cc5c4)CC3)c2c1` [Vilazodone HCl], the “percent Bodipy-positive cells” value under setting [1] came to 64.1 ± 4.5%.
As for `CCCCC/C=C\C/C=C\CCCCCCCC(=O)OCC(COC(=O)CCCCCCCCCCCCCCC)OC(=O)CCCCCCC/C=C\CCCCCCCC` (racemic) [1-Palmitoyl-2-oleoyl-3-linoleoyl-rac-glycerol], under setting [3], the “percent Bodipy-positive cells” value is 5.36 ± 1.3%.
As to `CN1C(C(=O)Nc2ccccn2)=C(O)c2sccc2S1(=O)=O` [Tenoxicam], the “percent Bodipy-positive cells” value was found to be 31.8 ± 8.9%. Moreover, the “percent Bodipy-positive cells” value under setting [1] was found to be 14.1 ± 9.2%. The “percent Bodipy-positive cells” value (library stock concentration: 5.9 mM) was 6.41% and 15.1%.
For `O=P(O)(O)O[C@H]1[C@@H](O)[C@H](O)[C@@H](OP(=O)(O)O)[C@H](OP(=O)(O)O)[C@H]1O` [D-myo-Inositol-2,4,5-triphosphate (sodium salt)], the “percent Bodipy-positive cells” value under setting [3] was found to be 13.7 ± 4.2%.
Take `O=C(CCCC[C@@H]1SC[C@@H]2NC(=O)N[C@@H]21)NCCCC[C@H](NC(=O)CCN1C(=O)C=CC1=O)C(=O)O` [3-(N-Maleimidopropionyl)-biocytin]: the “percent Bodipy-positive cells” value under setting [3] was 10.7 ± 2.1%.
